This is one part of the list.
Legend:
Experiment in all cases: log2 fold change, soluble protein after heating vs DMSO (PISA); higher = thermal stabilisation; K562 lysate, 10 uM; active = over 0.2 and 3.5 SD of the protein, either way, in both replicates (recomputed)
[1] = compound: C1=CC=C(C=C1)[C@H](COC2=CC3=C(C=C2)NC(=O)N3)NC(=O)C4=CC=CN(C4=O)CC5=CC(=C(C=C5)F)F
How it was run: (§1)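 Dounce homogenisation of K562 pellets in PBS pH 7.4 with 1 mM MgCl2 produced a crude extract, used at 1 mg/mL protein. Exposure to 10 μM compound lasted 30 min, and aliquots were then heated for 3 min across 48°C-58°C, pooled and brought to 0.5% NP-40 at 4°C. The supernatant after 21,000xg for 90 min was quantified by TMTpro 16plex LC-MS/MS with channel sums equalised. Duplicate values are given as log-two fold change in thermal stability relative to solvent controls.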

By UniProt entry, the sequences of proteins in these tests, tags left out. Where a name states a change or a piece, a line headed by the entry shows the natural chain unless it says otherwise.
UniProt Q8N6N7: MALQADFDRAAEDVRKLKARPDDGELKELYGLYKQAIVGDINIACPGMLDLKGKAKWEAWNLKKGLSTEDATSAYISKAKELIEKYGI
UniProt Q96AP0: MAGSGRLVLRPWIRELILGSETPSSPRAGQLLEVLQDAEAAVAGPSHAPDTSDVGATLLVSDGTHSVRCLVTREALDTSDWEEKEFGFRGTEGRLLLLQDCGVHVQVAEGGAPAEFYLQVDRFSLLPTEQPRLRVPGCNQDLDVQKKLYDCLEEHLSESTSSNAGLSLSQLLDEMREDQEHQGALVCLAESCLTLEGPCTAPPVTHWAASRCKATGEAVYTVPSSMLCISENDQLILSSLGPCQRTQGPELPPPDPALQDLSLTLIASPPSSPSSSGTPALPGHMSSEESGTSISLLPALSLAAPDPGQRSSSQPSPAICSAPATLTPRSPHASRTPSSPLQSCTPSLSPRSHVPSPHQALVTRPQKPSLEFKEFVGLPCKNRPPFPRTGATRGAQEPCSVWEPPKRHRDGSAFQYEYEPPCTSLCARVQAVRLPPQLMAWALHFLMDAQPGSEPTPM
UniProt Q9P1F3: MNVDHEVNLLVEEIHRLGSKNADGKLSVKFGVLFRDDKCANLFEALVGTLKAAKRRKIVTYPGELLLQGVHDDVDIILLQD
UniProt Q9NRN7: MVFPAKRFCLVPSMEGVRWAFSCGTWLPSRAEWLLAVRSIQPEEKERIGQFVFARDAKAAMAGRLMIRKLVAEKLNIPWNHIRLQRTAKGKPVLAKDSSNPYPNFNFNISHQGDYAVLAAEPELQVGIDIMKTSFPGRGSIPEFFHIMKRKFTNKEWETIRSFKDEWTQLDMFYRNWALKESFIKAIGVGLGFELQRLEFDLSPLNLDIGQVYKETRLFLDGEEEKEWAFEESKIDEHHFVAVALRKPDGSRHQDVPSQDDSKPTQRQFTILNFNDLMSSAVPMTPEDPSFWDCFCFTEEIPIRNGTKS
UniProt Q99758: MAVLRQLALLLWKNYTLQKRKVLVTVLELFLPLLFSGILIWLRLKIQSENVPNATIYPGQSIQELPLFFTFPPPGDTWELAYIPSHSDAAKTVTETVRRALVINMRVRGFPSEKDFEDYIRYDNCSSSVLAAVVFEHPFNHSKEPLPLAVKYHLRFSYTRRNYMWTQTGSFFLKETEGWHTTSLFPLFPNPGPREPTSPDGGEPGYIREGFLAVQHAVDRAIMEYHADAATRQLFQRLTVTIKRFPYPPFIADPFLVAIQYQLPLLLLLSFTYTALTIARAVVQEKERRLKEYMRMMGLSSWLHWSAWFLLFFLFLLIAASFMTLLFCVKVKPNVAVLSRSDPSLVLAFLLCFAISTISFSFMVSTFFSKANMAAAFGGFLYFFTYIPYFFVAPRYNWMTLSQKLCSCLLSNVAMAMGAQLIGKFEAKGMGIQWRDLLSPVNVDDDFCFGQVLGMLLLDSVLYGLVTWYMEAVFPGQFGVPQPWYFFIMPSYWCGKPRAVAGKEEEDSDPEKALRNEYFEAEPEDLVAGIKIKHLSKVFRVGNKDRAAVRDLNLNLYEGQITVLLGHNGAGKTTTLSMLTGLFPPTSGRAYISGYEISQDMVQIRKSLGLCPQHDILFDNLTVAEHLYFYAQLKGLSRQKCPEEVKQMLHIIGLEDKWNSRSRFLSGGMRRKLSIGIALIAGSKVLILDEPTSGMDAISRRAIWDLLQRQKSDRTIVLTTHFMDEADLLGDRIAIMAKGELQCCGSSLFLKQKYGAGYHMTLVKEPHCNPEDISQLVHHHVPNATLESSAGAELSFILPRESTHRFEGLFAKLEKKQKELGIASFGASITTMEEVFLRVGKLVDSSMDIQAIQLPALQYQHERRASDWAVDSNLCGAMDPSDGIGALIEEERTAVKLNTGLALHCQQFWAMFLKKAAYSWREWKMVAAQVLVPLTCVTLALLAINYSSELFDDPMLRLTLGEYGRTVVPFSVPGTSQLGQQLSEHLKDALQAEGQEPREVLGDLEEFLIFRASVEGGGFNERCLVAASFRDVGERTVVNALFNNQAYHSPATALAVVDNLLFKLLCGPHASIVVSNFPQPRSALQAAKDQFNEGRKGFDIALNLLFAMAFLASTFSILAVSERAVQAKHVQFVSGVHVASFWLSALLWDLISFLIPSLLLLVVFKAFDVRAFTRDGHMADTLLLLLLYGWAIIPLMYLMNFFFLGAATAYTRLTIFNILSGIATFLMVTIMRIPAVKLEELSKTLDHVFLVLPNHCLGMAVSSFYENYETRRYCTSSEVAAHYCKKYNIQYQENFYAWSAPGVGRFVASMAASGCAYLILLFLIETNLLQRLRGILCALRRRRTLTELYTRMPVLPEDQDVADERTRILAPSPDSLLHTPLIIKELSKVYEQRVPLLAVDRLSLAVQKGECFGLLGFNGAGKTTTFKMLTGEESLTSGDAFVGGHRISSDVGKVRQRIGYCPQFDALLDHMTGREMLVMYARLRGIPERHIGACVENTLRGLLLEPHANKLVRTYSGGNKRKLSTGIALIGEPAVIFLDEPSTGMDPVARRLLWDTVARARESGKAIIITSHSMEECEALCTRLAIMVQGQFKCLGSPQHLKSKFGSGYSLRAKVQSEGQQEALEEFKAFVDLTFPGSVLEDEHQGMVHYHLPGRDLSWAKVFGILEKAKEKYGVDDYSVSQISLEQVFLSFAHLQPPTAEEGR
UniProt Q15027: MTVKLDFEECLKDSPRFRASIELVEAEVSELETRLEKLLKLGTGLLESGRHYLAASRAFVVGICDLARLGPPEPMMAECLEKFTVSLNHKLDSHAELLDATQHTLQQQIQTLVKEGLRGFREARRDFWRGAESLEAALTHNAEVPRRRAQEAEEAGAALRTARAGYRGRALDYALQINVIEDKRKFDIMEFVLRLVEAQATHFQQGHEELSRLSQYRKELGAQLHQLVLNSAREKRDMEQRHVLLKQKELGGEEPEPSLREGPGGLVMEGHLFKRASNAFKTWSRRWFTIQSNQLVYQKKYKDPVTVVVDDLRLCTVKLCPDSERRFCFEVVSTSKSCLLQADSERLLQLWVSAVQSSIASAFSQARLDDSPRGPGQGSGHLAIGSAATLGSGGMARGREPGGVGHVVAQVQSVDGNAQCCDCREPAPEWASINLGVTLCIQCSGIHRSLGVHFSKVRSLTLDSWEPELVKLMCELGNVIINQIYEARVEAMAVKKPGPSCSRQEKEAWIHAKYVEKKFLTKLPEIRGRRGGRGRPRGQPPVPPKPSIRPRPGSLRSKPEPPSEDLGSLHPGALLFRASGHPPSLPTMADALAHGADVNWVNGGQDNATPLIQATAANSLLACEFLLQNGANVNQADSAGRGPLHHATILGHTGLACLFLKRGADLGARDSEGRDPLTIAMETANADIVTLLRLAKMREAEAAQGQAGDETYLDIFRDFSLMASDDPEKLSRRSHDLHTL
UniProt O00763, whole entry, looked up: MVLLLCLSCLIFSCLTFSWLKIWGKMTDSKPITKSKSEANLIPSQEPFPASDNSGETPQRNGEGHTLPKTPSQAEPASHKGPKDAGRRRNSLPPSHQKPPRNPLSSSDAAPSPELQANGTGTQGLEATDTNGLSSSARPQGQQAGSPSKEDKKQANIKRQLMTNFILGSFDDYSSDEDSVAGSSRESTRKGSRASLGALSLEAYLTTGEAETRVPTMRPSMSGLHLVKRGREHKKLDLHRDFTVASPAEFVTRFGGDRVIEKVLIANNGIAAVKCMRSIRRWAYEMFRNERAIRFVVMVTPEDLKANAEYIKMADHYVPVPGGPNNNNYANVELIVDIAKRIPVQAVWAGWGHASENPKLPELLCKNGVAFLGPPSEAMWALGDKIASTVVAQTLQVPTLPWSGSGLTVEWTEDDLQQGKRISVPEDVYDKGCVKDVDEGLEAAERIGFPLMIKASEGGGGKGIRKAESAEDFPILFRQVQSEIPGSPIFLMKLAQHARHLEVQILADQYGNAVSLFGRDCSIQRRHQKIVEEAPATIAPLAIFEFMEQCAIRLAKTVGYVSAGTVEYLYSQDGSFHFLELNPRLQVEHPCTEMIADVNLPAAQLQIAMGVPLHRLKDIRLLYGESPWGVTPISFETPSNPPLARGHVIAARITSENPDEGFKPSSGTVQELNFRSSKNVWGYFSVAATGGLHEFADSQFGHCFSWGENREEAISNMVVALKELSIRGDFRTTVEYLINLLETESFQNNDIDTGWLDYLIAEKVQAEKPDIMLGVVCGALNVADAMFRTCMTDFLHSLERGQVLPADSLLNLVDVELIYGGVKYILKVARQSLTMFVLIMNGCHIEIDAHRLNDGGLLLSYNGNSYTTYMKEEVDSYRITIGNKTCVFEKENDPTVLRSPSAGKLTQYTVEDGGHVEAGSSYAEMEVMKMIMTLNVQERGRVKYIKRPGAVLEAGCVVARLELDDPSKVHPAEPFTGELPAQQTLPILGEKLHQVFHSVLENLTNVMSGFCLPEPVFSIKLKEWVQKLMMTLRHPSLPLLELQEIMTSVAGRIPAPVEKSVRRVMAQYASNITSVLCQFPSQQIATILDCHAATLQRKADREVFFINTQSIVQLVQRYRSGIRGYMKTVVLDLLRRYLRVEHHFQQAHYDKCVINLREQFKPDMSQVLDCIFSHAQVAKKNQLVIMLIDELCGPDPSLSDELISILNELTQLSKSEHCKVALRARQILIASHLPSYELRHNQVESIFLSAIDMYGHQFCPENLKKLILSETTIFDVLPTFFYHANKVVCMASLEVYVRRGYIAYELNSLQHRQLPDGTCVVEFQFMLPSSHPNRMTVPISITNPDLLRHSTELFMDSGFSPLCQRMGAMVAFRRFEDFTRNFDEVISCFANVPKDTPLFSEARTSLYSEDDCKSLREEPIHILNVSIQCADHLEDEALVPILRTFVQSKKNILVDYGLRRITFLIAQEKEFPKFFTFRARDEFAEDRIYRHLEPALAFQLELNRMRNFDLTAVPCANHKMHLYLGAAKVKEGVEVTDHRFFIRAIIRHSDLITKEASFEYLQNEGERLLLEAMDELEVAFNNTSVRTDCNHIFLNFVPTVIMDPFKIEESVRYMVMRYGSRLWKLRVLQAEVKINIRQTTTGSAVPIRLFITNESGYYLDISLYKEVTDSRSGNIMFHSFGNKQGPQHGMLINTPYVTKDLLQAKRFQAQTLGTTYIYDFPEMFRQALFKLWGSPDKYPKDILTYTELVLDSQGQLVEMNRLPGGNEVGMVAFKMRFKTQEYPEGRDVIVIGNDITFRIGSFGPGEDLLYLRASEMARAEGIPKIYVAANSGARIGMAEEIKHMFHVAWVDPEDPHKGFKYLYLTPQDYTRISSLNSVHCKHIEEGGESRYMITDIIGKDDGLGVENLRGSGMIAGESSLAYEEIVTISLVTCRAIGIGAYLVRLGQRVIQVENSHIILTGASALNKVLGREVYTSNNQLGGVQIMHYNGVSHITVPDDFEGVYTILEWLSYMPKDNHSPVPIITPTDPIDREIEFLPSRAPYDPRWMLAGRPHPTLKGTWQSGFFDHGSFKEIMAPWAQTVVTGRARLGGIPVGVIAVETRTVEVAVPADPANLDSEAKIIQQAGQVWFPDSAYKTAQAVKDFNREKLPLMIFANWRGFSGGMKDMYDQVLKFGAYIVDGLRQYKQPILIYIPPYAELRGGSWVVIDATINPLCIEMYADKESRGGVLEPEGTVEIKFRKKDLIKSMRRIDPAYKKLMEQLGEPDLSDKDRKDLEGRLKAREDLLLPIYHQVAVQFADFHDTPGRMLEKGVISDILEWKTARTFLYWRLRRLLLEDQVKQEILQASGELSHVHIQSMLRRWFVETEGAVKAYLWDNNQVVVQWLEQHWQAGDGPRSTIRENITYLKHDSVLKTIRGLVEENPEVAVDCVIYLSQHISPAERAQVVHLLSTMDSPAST
UniProt P49748: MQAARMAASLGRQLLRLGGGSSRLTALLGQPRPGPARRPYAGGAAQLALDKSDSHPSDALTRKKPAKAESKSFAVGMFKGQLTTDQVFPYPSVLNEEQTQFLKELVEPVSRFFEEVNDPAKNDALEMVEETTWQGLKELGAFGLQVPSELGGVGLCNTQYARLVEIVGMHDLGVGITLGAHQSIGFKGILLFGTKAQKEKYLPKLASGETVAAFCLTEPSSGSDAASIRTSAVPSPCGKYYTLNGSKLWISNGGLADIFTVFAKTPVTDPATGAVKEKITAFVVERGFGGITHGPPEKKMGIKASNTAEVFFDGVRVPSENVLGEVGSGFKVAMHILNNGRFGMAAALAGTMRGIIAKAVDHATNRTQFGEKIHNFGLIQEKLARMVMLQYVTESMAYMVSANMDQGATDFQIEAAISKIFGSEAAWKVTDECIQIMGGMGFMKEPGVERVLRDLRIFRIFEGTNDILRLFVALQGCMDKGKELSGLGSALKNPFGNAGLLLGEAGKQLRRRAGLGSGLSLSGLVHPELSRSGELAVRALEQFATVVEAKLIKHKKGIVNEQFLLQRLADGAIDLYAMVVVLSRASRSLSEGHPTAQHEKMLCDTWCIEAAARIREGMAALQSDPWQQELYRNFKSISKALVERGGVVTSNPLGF

[2] = compound: CC1=C(SC2=C1C(=N[C@H](C3=NN=C(N32)C)CC(=O)N)C4=CC=C(C=C4)Cl)C
How it was run: as §1

[3] = compound: CC1=C2C(=CC=C1)N=C(N(C2=O)C3=CC=CC=C3C)CN4C=NC5=C(N=CN=C54)N
How it was run: as §1

[4] = compound: Cc1sc2c(c1C)C(c1ccc(Cl)cc1)=N[C@@H](CC(=O)OC(C)(C)C)c1nnc(C)n1-2
How it was run: as §1

[5] = compound: c1ccc([C@@H]2C[C@H]2NC2CCNCC2)cc1
How it was run: as §1

Measured: log2 fold change

ABCD3 (UniProt P28288)
inactive: [1] 0.178 | [2] -0.094 | [3] 0.016 | [4] 0.013 | [5] 0.01

ABHD14B (UniProt Q96IU4)
inactive: [1] -0.047 | [2] 0.015 | [3] 0.007 | [4] -0.028 | [5] -0.019

A2M (UniProt P01023)
inactive: [1] 0.026 | [2] 0.034 | [3] 0.048 | [4] -0.074 | [5] -0.099

ABCC5 (UniProt O15440)
inactive: [1] 0.087 | [2] -0.052 | [3] -0.108 | [4] -0.099 | [5] 0.115

ABCC1 (UniProt P33527)
inactive: [1] -0.047 | [2] 0.012 | [3] 0.038 | [4] -0.033 | [5] -0.005

ACBD3 (UniProt Q9H3P7)
inactive: [1] -0.022 | [2] -0.013 | [3] 0.007 | [4] 0.006 | [5] 0.048

ACIN1 (UniProt E7EQT4)
inactive: [1] 0.04 | [2] 0.015 | [3] 0.037 | [4] 0.032 | [5] -0.118

AARSD1 isoform 3 (UniProt Q9BTE6)
inactive: [1] 0.035 | [2] 0.03 | [3] 0.03 | [4] -0.002 | [5] 0.063

ABCC4 (UniProt O15439)
inactive: [1] -0.07 | [2] -0.009 | [3] 0.025 | [4] -0.035 | [5] -0.008

ACBD7 (UniProt Q8N6N7)
inactive: [4] -0.12

ACD (UniProt Q96AP0)
inactive: [5] -0.042

ABRACL (UniProt Q9P1F3)
inactive: [1] 0.052 | [2] -0.221 | [4] 0.054 | [5] 0.075

ABHD15 (UniProt Q6UXT9)
inactive: [3] 0.018 | [5] 0

ABCE1 (UniProt P61221)
inactive: [1] -0.017 | [2] -0.005 | [3] -0.01 | [4] 0.028 | [5] -0.011

AASDHPPT (UniProt Q9NRN7)
inactive: [1] -0.007 | [2] 0.041 | [3] 0.001 | [4] 0.029 | [5] 0.015

Two records drawn at random from those above:
ABCE1 (UniProt P61221)
inactive: [1] -0.017 | [2] -0.005 | [3] -0.01 | [4] 0.028 | [5] -0.011

AASDHPPT (UniProt Q9NRN7)
inactive: [1] -0.007 | [2] 0.041 | [3] 0.001 | [4] 0.029 | [5] 0.015

Further records follow.

ACE (UniProt P12821)
inactive: [3] 0.015

ACLY isoform 2 (UniProt P53396)
inactive: [1] 0.099 | [2] -0.01 | [3] 0.023 | [5] -0.325

ACAP3 (UniProt Q96P50)
inactive: [1] 0.157 | [2] 0.129 | [4] -0.054

ABCA3 (UniProt Q99758)
inactive: [1] 0.112 | [2] 0.038 | [3] 0.006 | [4] -0.01 | [5] -0.005

ABCC3 isoform 4 (UniProt O15438)
inactive: [4] 0.057

ACAP1 (UniProt Q15027)
inactive: [5] 0.052

ABCF2 isoform 2 (UniProt Q9UG63)
inactive: [1] -0.022 | [2] -0.011 | [3] 0.04 | [4] -0.019 | [5] 0.055

ACACB (UniProt O00763)
inactive: [1] -0.018 | [2] 0.002 | [3] 0.01 | [4] 0.074 | [5] 0.014

ABHD16A (UniProt O95870)
inactive: [1] -0.011 | [2] 0.008 | [3] 0.07 | [4] 0.059 | [5] 0.028

ACOT13 (UniProt Q9NPJ3)
inactive: [1] 0.023 | [2] 0.017 | [3] -0.029 | [4] 0.007 | [5] 0.035

ACADSB (UniProt P45954)
inactive: [1] 0.035 | [2] -0.051 | [3] -0.053 | [4] 0.09 | [5] 0.016

AARS1 (UniProt H3BPK7)
inactive: [3] -0.028

ABLIM1 (UniProt O14639)
inactive: [1] 0.03 | [2] 0.047 | [3] 0.084 | [4] -0.049 | [5] -0.052

ACADVL isoform 3 (UniProt P49748)
inactive: [1] 0.002 | [2] 0.016 | [3] 0.033 | [4] 0.021 | [5] -0.004

Reference: the supplement of paper PMC10849652
